At least one compound was matched to its structure with a doubt left.
Tested on: HepG2 cells

## CC[C@H]1[C@@H](O)[C@@H]2[C@H]([C@@H](O)C[C@]3(C)[C@@H]([C@H](C)CCC(=O)O)CC[C@@H]23)[C@@]2(C)CC[C@@H](O)C[C@@H]12 [Compound 100, 3α,7α,11β-trihydroxy-6α-ethyl-5β-cholan-24-oic acid]
  Membrane integrity EC50 (μM) (LDH measure): No toxicity

Source: US9611289B2, “Farnesoid X receptor modulators” (Intercept Pharmaceuticals, Inc., priority 2013, dated 2017)
